Experimental data as given in PMC4085075, “Characterization of Estrogen and Androgen Activity of Food Contact Materials by Different In Vitro Bioassays (YES, YAS, ERα and AR CALUX) and Chromatographic Analysis (GC-MS, HPLC-MS)” (PLoS ONE, 2014).

Assay: GC-MS (SIM) quantification of substances in packaging migrates
Settings: 60°C, 10 days

For `CC(C)(C)c1ccc(O)c(C(C)(C)C)c1` [2,4-di-tert-butylphenol], the Concentration in migrate (migrate of sample PP 2, 95% EtOH) was 0.11 mg/L and 0.11 ± 0.03 mg/L.

Molecule `CCCCC(CC)COC(=O)CCCCC(=O)OCC(CC)CCCC` (centres unmarked) [diethylhexyladipate (DEHA), diethylhexyladipate] has a Concentration in migrate (migrate of sample CF 1, 95% EtOH) of 1.2 ± 0.4 mg/L.

“And” between values parts separate entries of the source, which are not always exact repeats. Equal entries are not always repeated.
